Paper PMC6156364, “Bioinformatic and in vitro Analyses of Arabidopsis Starch Synthase 2 Reveal Post-translational Regulatory Mechanisms” (Frontiers in Plant Science, 2018)
No constants are given. Whether binding was seen depends on the method and setting. In cells and extracts the contact can be indirect. Some entries that bind do so weakly or less than the wild type. Tags and fused reporters may be left off the sequences shown.

Assays:
[1] = biological target: T1, recombinant S-tagged mature Arabidopsis thaliana starch synthase 2 (wild type) (Arabidopsis thaliana) (UniProt Q9MAC8); experiment: pull-down; as a2 with maize amyloplast extract, untreated (neither ATP nor CIP added); only the target purified
T1 sequence: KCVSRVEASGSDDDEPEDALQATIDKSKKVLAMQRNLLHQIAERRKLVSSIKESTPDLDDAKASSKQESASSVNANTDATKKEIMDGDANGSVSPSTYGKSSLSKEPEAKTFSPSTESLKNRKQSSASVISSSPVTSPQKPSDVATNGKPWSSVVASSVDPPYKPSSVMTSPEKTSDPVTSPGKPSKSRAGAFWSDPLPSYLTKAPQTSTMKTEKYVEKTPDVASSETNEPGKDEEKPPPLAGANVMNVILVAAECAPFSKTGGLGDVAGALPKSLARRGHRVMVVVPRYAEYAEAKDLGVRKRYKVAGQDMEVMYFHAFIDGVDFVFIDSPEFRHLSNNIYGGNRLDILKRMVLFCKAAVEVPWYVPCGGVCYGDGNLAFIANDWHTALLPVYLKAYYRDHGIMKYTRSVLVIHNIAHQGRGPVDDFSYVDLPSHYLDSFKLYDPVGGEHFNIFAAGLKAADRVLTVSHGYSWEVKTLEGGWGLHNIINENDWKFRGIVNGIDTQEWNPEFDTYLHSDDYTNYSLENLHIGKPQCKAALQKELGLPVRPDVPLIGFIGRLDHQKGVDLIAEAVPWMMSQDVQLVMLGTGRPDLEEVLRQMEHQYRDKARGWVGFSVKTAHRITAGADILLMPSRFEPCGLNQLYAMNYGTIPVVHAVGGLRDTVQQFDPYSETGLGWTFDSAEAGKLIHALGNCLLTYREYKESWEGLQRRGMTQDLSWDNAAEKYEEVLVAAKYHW

[2] = biological target: T2, recombinant S-tagged mature Arabidopsis SS2 S63/65A double mutant (Arabidopsis thaliana) (UniProt Q9MAC8); experiment: pull-down; S-tagged SS2 immobilised on S-protein agarose beads as bait, incubated 40 min at room temperature with plastid stroma (~1 mg/ml) with 1 mM ATP, DTT, CaCl2, protease inhibitors; washed with 20 mM Tris-HCl pH 7.5, 150 mM NaCl, 0.1% Triton-X100; immunoblot with SBE antibodies; the paper calls it co-immunoprecipitation; only the target purified
T2 sequence: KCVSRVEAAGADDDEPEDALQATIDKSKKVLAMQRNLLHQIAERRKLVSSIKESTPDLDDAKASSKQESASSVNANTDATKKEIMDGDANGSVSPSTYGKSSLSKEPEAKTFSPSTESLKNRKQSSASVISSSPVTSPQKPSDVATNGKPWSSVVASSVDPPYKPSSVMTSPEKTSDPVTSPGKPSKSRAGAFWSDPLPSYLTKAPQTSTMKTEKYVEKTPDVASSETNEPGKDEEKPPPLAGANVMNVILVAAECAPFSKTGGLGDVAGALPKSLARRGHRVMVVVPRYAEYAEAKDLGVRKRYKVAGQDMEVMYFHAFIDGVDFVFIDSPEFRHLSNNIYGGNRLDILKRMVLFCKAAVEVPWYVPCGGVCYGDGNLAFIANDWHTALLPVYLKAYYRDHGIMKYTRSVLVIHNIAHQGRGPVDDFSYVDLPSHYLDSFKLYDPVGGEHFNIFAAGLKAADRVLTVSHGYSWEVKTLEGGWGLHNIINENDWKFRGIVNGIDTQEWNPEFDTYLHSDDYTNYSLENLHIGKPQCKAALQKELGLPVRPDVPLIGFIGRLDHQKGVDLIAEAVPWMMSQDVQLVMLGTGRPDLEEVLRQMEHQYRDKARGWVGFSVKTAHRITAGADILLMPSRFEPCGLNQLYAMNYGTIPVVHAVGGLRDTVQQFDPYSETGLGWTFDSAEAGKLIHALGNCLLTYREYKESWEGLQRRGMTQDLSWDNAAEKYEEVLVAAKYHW

[3] = biological target: T1, recombinant S-tagged mature Arabidopsis thaliana starch synthase 2 (wild type) (Arabidopsis thaliana); experiment: as above
[4] = biological target: T1, recombinant S-tagged mature Arabidopsis thaliana starch synthase 2 (wild type) (Arabidopsis thaliana); experiment: condition: only pre-incubated with calf intestinal phosphatase (CIP); pull-down; as a2 with maize amyloplast extract, with calf intestinal phosphatase (CIP) instead of ATP (100 U in the methods, 10 U in the legend); only the target purified

B1: maize starch branching enzyme IIb (enzyme, UniProt Q08047 58-799)
chain: RKAVMVPEGENDGLASRADSAQFQSDELEVPDISEETTCGAGVADAQALNRVRVVPPPSDGQKIFQIDPMLQGYKYHLEYRYSLYRRIRSDIDEHEGGLEAFSRSYEKFGFNASAEGITYREWAPGAFSAALVGDVNNWDPNADRMSKNEFGVWEIFLPNNADGTSPIPHGSRVKVRMDTPSGIKDSIPAWIKYSVQAPGEIPYDGIYYDPPEEVKYVFRHAQPKRPKSLRIYETHVGMSSPEPKINTYVNFRDEVLPRIKKLGYNAVQIMAIQEHSYYGSFGYHVTNFFAPSSRFGTPEDLKSLIDRAHELGLLVLMDVVHSHASSNTLDGLNGFDGTDTHYFHSGPRGHHWMWDSRLFNYGNWEVLRFLLSNARWWLEEYKFDGFRFDGVTSMMYTHHGLQVTFTGNFNEYFGFATDVDAVVYLMLVNDLIHGLYPEAVTIGEDVSGMPTFALPVHDGGVGFDYRMHMAVADKWIDLLKQSDETWKMGDIVHTLTNRRWLEKCVTYAESHDQALVGDKTIAFWLMDKDMYDFMALDRPSTPTIDRGIALHKMIRLITMGLGGEGYLNFMGNEFGHPEWIDFPRGPQRLPSGKFIPGNNNSYDKCRRRFDLGDADYLRYHGMQEFDQAMQHLEQKYEFMTSDHQYISRKHEEDKVIVFEKGDLVFVFNFHCNNSYFDYRIGCRKPGVYKVVLDSDAGLFGGFSRIHHAAEHFTADCSHDNRPYSFSVYTPSRTCVVYAPVE
- binding [1]: binds
- binding [2]: binds
- binding [3]: binds
- binding [4]: no binding

B2: Arabidopsis starch branching enzyme 2.2 (enzyme, UniProt Q9LZS3 33-805)
chain: FFFKKHPLSRKIFAGKQSAEFDSSSQAISASEKVLVPDNLDDDPRGFSQIFDLESQTMEYTEAVRTEDQTMNVVKERGVKPRIVPPPGDGKKIYEIDPMLRTYNNHLDYRYGQYKRLREEIDKYEGGLEAFSRGYEKLGFSRSDAGITYREWAPGAKAASLIGDFNNWNSNADIMTRNEFGVWEIFLPNNTDGSPAIPHGSRVKIRMDTPSGIKDSIPAWIKFSVQAPGEIPFNGIYYDPPEEEKYVFKHPQPKRPKSLRIYEAHVGMSSTEPMVNTYANFRDDVLPRIKKLGYNAVQIMAIQEHSYYASFGYHVTNFFAPSSRCGTPEELKSLIDRAHELGLVVLMDIVHSHASKNTLDGLNMFDGTDAHYFHSGPRGYHWMWDSRLFNYGSWEVLRYLLSNARWWLEEYKFDGFRFDGVTSMMYTHHGLSVGFTGNYTEYFGLETDVDAVNYLMLVNDMIHGLYPEAITVGEDVSGMPTFCIPVQDGGVGFDYRLHMAIADKWIEMLKKRDEDWQMGDIIYTLTNRRWSEKCISYAESHDQALVGDKTIAFWLMDKDMYDFMAVDRPSTPLIDRGIALHKMIRLITMGLGGEGYLNFMGNEFGHPEWIDFPRGEQRLSDGSVIPGNNFSYDKCRRRFDLGDADYLRYRGLQEFDQAMQHLEENYGFMTSEHQFISRKDEADRVIVFERGDLVFVFNFHWTSSYFDYRIGCSKPGKYKIVLDSDDPLFGGFNRLDRKAEYFTYDGLYDERPCSFMVYAPCRTAVVYALANHD
- binding [3]: binds
